## Percent effect of library compounds

By UniProt entry, the sequences of proteins in these tests, tags left out. Residues count along the entry.
UniProt Q8IDJ8, 1-583: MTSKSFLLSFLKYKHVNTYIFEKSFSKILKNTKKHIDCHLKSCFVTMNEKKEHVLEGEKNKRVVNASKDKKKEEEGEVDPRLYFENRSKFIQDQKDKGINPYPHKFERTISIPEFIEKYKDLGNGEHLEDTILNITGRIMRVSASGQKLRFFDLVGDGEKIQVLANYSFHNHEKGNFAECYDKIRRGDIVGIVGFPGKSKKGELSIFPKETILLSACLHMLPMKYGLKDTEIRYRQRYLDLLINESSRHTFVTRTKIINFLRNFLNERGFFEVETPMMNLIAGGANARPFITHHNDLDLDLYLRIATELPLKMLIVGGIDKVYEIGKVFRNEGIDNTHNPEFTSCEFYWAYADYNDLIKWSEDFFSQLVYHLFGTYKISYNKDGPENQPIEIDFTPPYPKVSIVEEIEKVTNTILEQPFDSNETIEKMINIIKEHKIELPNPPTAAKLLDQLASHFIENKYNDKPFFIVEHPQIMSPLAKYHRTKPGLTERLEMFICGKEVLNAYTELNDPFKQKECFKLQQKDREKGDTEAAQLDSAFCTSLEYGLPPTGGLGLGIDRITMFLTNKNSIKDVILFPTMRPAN
UniProt P9WFT3, whole entry: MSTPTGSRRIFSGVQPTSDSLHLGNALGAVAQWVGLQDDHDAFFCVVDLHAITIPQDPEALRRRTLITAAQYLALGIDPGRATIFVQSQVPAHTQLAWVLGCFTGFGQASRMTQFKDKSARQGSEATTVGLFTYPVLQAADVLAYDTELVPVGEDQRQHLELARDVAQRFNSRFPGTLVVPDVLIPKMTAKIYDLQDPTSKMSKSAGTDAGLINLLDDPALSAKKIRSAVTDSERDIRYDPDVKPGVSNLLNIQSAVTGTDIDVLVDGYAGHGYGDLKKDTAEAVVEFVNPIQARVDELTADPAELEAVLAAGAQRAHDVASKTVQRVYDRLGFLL
UniProt P9WPC5, whole entry: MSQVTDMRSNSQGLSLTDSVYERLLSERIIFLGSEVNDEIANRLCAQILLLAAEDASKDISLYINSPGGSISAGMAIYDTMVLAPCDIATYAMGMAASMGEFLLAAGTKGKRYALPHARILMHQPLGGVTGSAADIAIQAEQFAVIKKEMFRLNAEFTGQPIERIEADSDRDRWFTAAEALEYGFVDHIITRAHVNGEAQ
UniProt P9WPC3, whole entry partner: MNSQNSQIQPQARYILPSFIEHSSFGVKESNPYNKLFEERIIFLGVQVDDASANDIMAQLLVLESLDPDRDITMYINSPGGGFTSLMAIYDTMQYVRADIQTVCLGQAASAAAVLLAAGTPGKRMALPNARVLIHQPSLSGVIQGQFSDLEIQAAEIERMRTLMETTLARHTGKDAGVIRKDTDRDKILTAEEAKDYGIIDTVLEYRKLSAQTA
UniProt Q4DA54, 1-478: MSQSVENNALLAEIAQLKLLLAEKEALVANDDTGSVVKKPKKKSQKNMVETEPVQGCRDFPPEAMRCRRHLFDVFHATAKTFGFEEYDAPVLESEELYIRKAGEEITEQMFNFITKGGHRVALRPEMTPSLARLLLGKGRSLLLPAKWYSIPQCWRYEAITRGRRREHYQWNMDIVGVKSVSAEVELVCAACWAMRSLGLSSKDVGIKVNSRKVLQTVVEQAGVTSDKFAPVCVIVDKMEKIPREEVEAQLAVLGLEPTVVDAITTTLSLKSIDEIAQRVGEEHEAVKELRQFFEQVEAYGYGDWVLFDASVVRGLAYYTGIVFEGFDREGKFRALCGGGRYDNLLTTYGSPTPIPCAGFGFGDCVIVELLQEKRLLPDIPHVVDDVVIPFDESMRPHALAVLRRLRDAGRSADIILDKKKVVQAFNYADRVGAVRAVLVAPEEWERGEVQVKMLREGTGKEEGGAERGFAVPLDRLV

PfKRS1: 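Enzyme assay of the cytosolic lysyl-tRNA synthetase in 384-well plates, read by luminescence. Target: Lysine-tRNA ligase, Plasmodium falciparum 3D7 (UniProt Q8IDJ8). Compounds at 30 µM. Higher reads as stronger inhibition, judged from the few compounds that gave an IC50. About 69,000 compounds were tested under these conditions; 0.071% (about 49) showed 50% or more at least once.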
MtTrpRS: 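Enzyme assay of tryptophanyl-tRNA synthetase; the read-out is not stated. Target: Tryptophan-tRNA ligase, Mycobacterium tuberculosis (UniProt P9WFT3). Compounds at 10 µM. Direction is not recorded; retested compounds ran higher, which suggests that high means inhibition. About 65,000 compounds were tested under these conditions; 0.098% (about 64) showed 50% or more at least once.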
ClpP1P2: 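Protease assay of ClpP1P2, read by the AMC dye that it sets free. Target: ClpP1P2, Mycobacterium tuberculosis (UniProt P9WPC5 and UniProt P9WPC3). Compounds at 50 µM. Higher reads as stronger inhibition, judged from the few compounds that gave an IC50. Most other retested compounds had strongly negative values. Size under these conditions: about 69,000 compounds, about 10 of them at 50% or above in at least one test.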
TcHisRS: 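Histidine-tRNA ligase, Trypanosoma cruzi CL Brener (UniProt Q4DA54). Enzyme assay of histidyl-tRNA synthetase; the read-out is not stated. Tested at 30 µM. Higher reads as stronger inhibition (inferred: compounds with an IC50 in retests scored well above the rest). About 69,000 compounds were tested under these conditions; 0.045% (about 31) showed 50% or more at least once.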

Results are given as percent effect.
The controls that fix the scale are not given in the record; negative values are as filed.
Compounds were drawn at random from those tested, without regard to their results.

compound: COCCN(Cc1ccoc1)C(=O)CSc1ccc(F)cc1
PfKRS1: -0.8527%
MtTrpRS: 3.732%
ClpP1P2: -23.08%
TcHisRS: 4%

compound: Cc1nc(-c2c(C)noc2C)cc(C2CCN(S(=O)(=O)N(C)C)CC2)n1
PfKRS1: 1.595%
MtTrpRS: -2.995%
ClpP1P2: 17.13%
TcHisRS: 2.682%

compound: CC(C)n1c(C2CCCN(Cc3ccnn3C)C2)nc2ccccc21 (configuration not stated)
PfKRS1: -0.6077%
MtTrpRS: 0.1762%
ClpP1P2: 7.645%
TcHisRS: 3.825%

compound: COc1ccccc1N1CCC(CNCc2cccc(OC)c2OC)C1 (configuration not stated)
PfKRS1: 3.901%
MtTrpRS: -0.3912%
ClpP1P2: 11.29%
TcHisRS: 9.023%

compound: COc1cccc(CC(=O)N2CC[C@@H]3CN(C)S(=O)(=O)[C@@H]3CC2)c1
PfKRS1: 3.15%
ClpP1P2: -11.21%
TcHisRS: 9.497%

compound: OCCN1CCC(CNCCOCC(F)(F)F)CC1
PfKRS1: -2.06%
MtTrpRS: 12.14%
ClpP1P2: -9.96%
TcHisRS: -1.961%

compound: CNC(=O)[C@@]12CCO[C@@H]1CCN(Cc1ccc3c(c1)OCO3)C2
PfKRS1: 1.347%
ClpP1P2: 14.68%
TcHisRS: 8.889%

compound: Cc1noc(C)c1-c1cccc(C2CCCNC2)n1 (configuration not stated)
PfKRS1: 2.781%
MtTrpRS: -1.725%
ClpP1P2: -5.725%
TcHisRS: -4.563%

compound: O=S(=O)(NCCC(O)c1cccs1)c1ccccc1Cl (configuration not stated)
PfKRS1: 3.361%
MtTrpRS: -9.65%
ClpP1P2: -4.401%
TcHisRS: -1.031%

compound: CCOc1ccc(NC(=O)N(CCC#N)Cc2ccccn2)cc1F
PfKRS1: 0.9025%
MtTrpRS: 1.571%
ClpP1P2: 0.6505%
TcHisRS: 2.618%

compound: COCCN(Cc1cccnc1)S(=O)(=O)c1ccc(F)cc1C
PfKRS1: 0.1144%
MtTrpRS: 0.2172%
ClpP1P2: -4.646%
TcHisRS: 3.333%

compound: CO[C@H]1C[C@@H]2CN(C(=O)c3cc4ccc(F)cc4[nH]3)C[C@@H]2C1
PfKRS1: -1.508%
MtTrpRS: -6.22%
ClpP1P2: 0.5467%
TcHisRS: 4.545%

compound: CCn1cc(CN(C)C(=O)c2cccc(CCC(C)(C)O)c2)cn1
PfKRS1: 2.158%
MtTrpRS: -1.776%
ClpP1P2: -9.905%
TcHisRS: 8.714%

compound: CC(C)CS(=O)(=O)CCNC(=O)Nc1cccc2ncccc12
PfKRS1: -3.397%
MtTrpRS: 17.08%
ClpP1P2: -8.313%
TcHisRS: -0.6494%

compound: Cc1cc(CN(C)Cc2csc(-c3ccc(C(C)C)cc3)n2)no1
PfKRS1: 1.356%
MtTrpRS: -2.414%
ClpP1P2: 2.956%
TcHisRS: 1.478%

compound: COCCN(C)C[C@@H]1CN(c2cc(C)nc3ccccc23)C[C@@H]1CO
PfKRS1: -1.01%
MtTrpRS: -2.142%
ClpP1P2: -20.82%
TcHisRS: 6.468%

compound: Cc1cccc(N2CCN(C(=O)Nc3cnn(CC(N)=O)c3)CC2)c1
PfKRS1: 4.407%
MtTrpRS: 0.8166%
ClpP1P2: 22.62%
TcHisRS: -4.58%

compound: O=c1[nH]c(-c2cccnc2)nc2c1CCN(S(=O)(=O)N1CCCC1)C2
PfKRS1: 11.19%
MtTrpRS: 5.417%
ClpP1P2: -8.342%
TcHisRS: 2.591%

compound: CS(=O)(=O)N1C[C@@H]2CC[C@H](C1)N(Cc1cscn1)C2=O
PfKRS1: 5.454%
MtTrpRS: 1.069%
ClpP1P2: 1.658%
TcHisRS: 1.653%

compound: CC(C)n1cc(S(=O)(=O)N2CCCCCC2)cn1
PfKRS1: 2.316%
MtTrpRS: 1.943%
ClpP1P2: -6.477%
TcHisRS: 3.478%

compound: O=C(c1cccnc1-c1ccc2c(c1)OCCO2)N1CCCC1
PfKRS1: 2.219%
MtTrpRS: -4.839%
ClpP1P2: 6.359%
TcHisRS: 4.545%

compound: CCN(CC)c1ccc(C(=O)NCc2cccnc2-n2cncn2)cn1
PfKRS1: 8.97%
MtTrpRS: 3.353%
ClpP1P2: 3.333%
TcHisRS: 3.39%

compound: CC(=O)Nc1ccc(CCC2(NC(=O)C3CCCO3)CCCCC2)cn1 (configuration not stated)
PfKRS1: -1.128%
MtTrpRS: -1.48%
ClpP1P2: -14.29%
TcHisRS: 1.916%

compound: CN1CCOC(C)(C(=O)Nc2nc(C(C)(C)C)cs2)C1 (configuration not stated)
PfKRS1: -0.3844%
MtTrpRS: 2.604%
ClpP1P2: 23.05%
TcHisRS: 1.149%

compound: CC(NC(=O)COc1ccc(F)cc1)c1nnc2n1CCCCC2 (configuration not stated)
PfKRS1: 6.574%
MtTrpRS: 2.269%
ClpP1P2: 4.164%
TcHisRS: 0.7519%

compound: CCCn1cnc2c(cnn2-c2cccc(C)c2C)c1=O
PfKRS1: -1.362%
MtTrpRS: -3.712%
ClpP1P2: 8.671%
TcHisRS: 10.1%

compound: CN(C)S(=O)(=O)N1CCC(Oc2cccnn2)CC1
PfKRS1: 1.71%
MtTrpRS: -3.522%
ClpP1P2: -6.047%
TcHisRS: 6.533%

compound: CCOCc1cccc(NCc2c[nH]nc2-c2cccnc2)c1
PfKRS1: 9.69%
MtTrpRS: -1.168%
ClpP1P2: -6.94%
TcHisRS: 4.433%

Some entries from above, unchanged:

compound	PfKRS1	MtTrpRS	ClpP1P2	TcHisRS
CO[C@H]1C[C@@H]2CN(C(=O)c3cc4ccc(F)cc4[nH]3)C[C@@H]2C1	-1.508%	-6.22%	0.5467%	4.545%
O=S(=O)(NCCC(O)c1cccs1)c1ccccc1Cl (configuration not stated)	3.361%	-9.65%	-4.401%	-1.031%

Measurements from “University of Dundee, Small-Polar-MMV Screening Library” (2021), ChEMBL document CHEMBL3988442.